Reference: ChEMBL document CHEMBL4316593 (Eur J Med Chem, 2019)
The source gives many values for each of these; only a part stands here.

Tests used:
Type in all cases: cell-based
Details in all cases: U-87MG ATCC
[1] = Inhibition of RTK/PI3K/AKT/mTOR signaling in human U87 cells assessed as up regulation of sirtuin 5 gene expression at cytotoxic IC50 measured after 48 hrs relative to control
[2] = Inhibition of RTK/PI3K/AKT/mTOR signaling in human U87 cells assessed as up regulation of collagen type XXVII alpha 1 chain gene expression at cytotoxic IC50 measured after 48 hrs relative to control
[3] = Inhibition of RTK/PI3K/AKT/mTOR signaling in human U87 cells assessed as up regulation of solute carrier family 25 member 23 gene expression at cytotoxic IC50 measured after 48 hrs relative to control
[4] = Inhibition of RTK/PI3K/AKT/mTOR signaling in human U87 cells assessed as down regulation of KANSL2 gene expression at cytotoxic IC50 measured after 48 hrs relative to control
[5] = Inhibition of RTK/PI3K/AKT/mTOR signaling in human U87 cells assessed as down regulation of E2F1 gene expression at cytotoxic IC50 measured after 48 hrs relative to control
[6] = Inhibition of RTK/PI3K/AKT/mTOR signaling in human U87 cells assessed as down regulation of SYAP1 gene expression at cytotoxic IC50 measured after 48 hrs relative to control
[7] = Inhibition of RTK/PI3K/AKT/mTOR signaling in human U87 cells assessed as up regulation of cytochrome p450 oxidoreductase gene expression at cytotoxic IC50 measured after 48 hrs relative to control
[8] = Inhibition of RTK/PI3K/AKT/mTOR signaling in human U87 cells assessed as down regulation of LGMN gene expression at cytotoxic IC50 measured after 48 hrs relative to control
[9] = Inhibition of RTK/PI3K/AKT/mTOR signaling in human U87 cells assessed as down regulation of CBL gene expression at cytotoxic IC50 measured after 48 hrs relative to control
[10] = Inhibition of RTK/PI3K/AKT/mTOR signaling in human U87 cells assessed as up regulation of TNF superfamily member 9 gene expression at cytotoxic IC50 measured after 48 hrs relative to control
[11] = Inhibition of RTK/PI3K/AKT/mTOR signaling in human U87 cells assessed as down regulation of CNOT4 gene expression at cytotoxic IC50 measured after 48 hrs relative to control
[12] = Inhibition of RTK/PI3K/AKT/mTOR signaling in human U87 cells assessed as up regulation of FXYD3 gene expression at cytotoxic IC50 measured after 48 hrs relative to control
[13] = Inhibition of RTK/PI3K/AKT/mTOR signaling in human U87 cells assessed as up regulation of SSTR5 gene expression at cytotoxic IC50 measured after 48 hrs relative to control
[14] = Inhibition of RTK/PI3K/AKT/mTOR signaling in human U87 cells assessed as up regulation of EIF2A gene expression at cytotoxic IC50 measured after 48 hrs relative to control
[15] = Inhibition of RTK/PI3K/AKT/mTOR signaling in human U87 cells assessed as up regulation of tripartite motif containing 2 gene expression at cytotoxic IC50 measured after 48 hrs relative to control
[16] = Inhibition of RTK/PI3K/AKT/mTOR signaling in human U87 cells assessed as up regulation of stearoyl-CoA desaturase 5 gene expression at cytotoxic IC50 measured after 48 hrs relative to control
[17] = Inhibition of RTK/PI3K/AKT/mTOR signaling in human U87 cells assessed as up regulation of ankyrin repeat and sterile alpha motif domain containing 6 gene expression at cytotoxic IC50 measured after 48 hrs relative to control
[18] = Inhibition of RTK/PI3K/AKT/mTOR signaling in human U87 cells assessed as down regulation of PTP4A1 gene expression at cytotoxic IC50 measured after 48 hrs relative to control
[19] = Inhibition of RTK/PI3K/AKT/mTOR signaling in human U87 cells assessed as down regulation of KPNA4 gene expression at cytotoxic IC50 measured after 48 hrs relative to control
[20] = Inhibition of RTK/PI3K/AKT/mTOR signaling in human U87 cells assessed as down regulation of PSMC3 gene expression at cytotoxic IC50 measured after 48 hrs relative to control
[21] = Inhibition of RTK/PI3K/AKT/mTOR signaling in human U87 cells assessed as down regulation of STK38L gene expression at cytotoxic IC50 measured after 48 hrs relative to control
[22] = Inhibition of RTK/PI3K/AKT/mTOR signaling in human U87 cells assessed as up regulation of coiled-coil domain containing 47 gene expression at cytotoxic IC50 measured after 48 hrs relative to control
[23] = Inhibition of RTK/PI3K/AKT/mTOR signaling in human U87 cells assessed as up regulation of emopamil binding protein like gene expression at cytotoxic IC50 measured after 48 hrs relative to control
[24] = Inhibition of RTK/PI3K/AKT/mTOR signaling in human U87 cells assessed as up regulation of recombination signal binding protein for immunoglobulin kappa J region gene expression at cytotoxic IC50 measured after 48 hrs relative to control
[25] = Inhibition of RTK/PI3K/AKT/mTOR signaling in human U87 cells assessed as up regulation of TRIM65 gene expression at cytotoxic IC50 measured after 48 hrs relative to control
[26] = Inhibition of RTK/PI3K/AKT/mTOR signaling in human U87 cells assessed as down regulation of PHLDB3 gene expression at cytotoxic IC50 measured after 48 hrs relative to control
[27] = Inhibition of RTK/PI3K/AKT/mTOR signaling in human U87 cells assessed as down regulation of TIMP1 gene expression at cytotoxic IC50 measured after 48 hrs relative to control
[28] = Inhibition of RTK/PI3K/AKT/mTOR signaling in human U87 cells assessed as up regulation of ST6 N-acetylgalactosaminide alpha-2,6-sialyltransferase 6 gene expression at cytotoxic IC50 measured after 48 hrs relative to control
[29] = Inhibition of RTK/PI3K/AKT/mTOR signaling in human U87 cells assessed as up regulation of signal sequence receptor subunit 4 gene expression at cytotoxic IC50 measured after 48 hrs relative to control
[30] = Inhibition of RTK/PI3K/AKT/mTOR signaling in human U87 cells assessed as up regulation of progestin and adipoQ receptor family member 8 gene expression at cytotoxic IC50 measured after 48 hrs relative to control
[31] = Inhibition of RTK/PI3K/AKT/mTOR signaling in human U87 cells assessed as down regulation of TRAPPC4 gene expression at cytotoxic IC50 measured after 48 hrs relative to control
[32] = Inhibition of RTK/PI3K/AKT/mTOR signaling in human U87 cells assessed as up regulation of H1 histone family member 0 gene expression at cytotoxic IC50 measured after 48 hrs relative to control

Structure (SMILES): CC(=O)C(=NNc1ccccc1C#N)C(C)=O
- log2FC [1]: 1.11
- log2FC [2]: 1.18
- log2FC [3]: 0.865
- log2FC [4]: -0.751
- log2FC [5]: -1.62
- log2FC [6]: -0.668
- log2FC [7]: 0.771
- log2FC [8]: -1.44
- log2FC [9]: -0.594
- log2FC [10]: 1.03
- log2FC [11]: -1.11
- log2FC [12]: 2.8
- log2FC [13]: 2.64
- log2FC [14]: 0.554
- log2FC [15]: 0.746
- log2FC [16]: 0.814
- log2FC [17]: 0.818
- log2FC [18]: -0.959
- log2FC [19]: -1.19
- log2FC [20]: -0.465
- log2FC [21]: -0.661
- log2FC [22]: 0.912
- log2FC [23]: 0.978
- log2FC [24]: 0.928
- log2FC [25]: 2.15
- log2FC [26]: -1.37
- log2FC [27]: -0.978
- log2FC [28]: 1.37
- log2FC [29]: 0.653
- log2FC [30]: 0.905
- log2FC [31]: -0.921
- log2FC [32]: 0.935
